PubChem BioAssay AID1159584 | Peter MacCallum Cancer Centre | 2016
Aim: 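Genes that CDH1-null MCF10A cells selectively depend on to survive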 (primary screen). Cell system: human MCF10A breast epithelial cells, parental and CDH1-null. Knock-down reagent: siRNA against human genes. Measured: 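Cell viability by CellTiter-Glo ATP luminescence, each line scaled to the mean of mock wells across plates, then CDH1-null over parental ratio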. Reading the numbers: CDH1-null / parental viability ratio: higher = CDH1-null cells survive relatively better than parental; CDH1-null viability vs mock: higher = more viable CDH1-null cells; parental viability vs mock: higher = more viable parental cells.
The whole screen tested about 18,000 reagents; this is an unselected part. Not given: the amount of reagent, the time to read-out.

| Gene | CDH1-null / parental viability ratio | CDH1-null viability vs mock (fraction of mock) | parental viability vs mock (fraction of mock) |
| --- | --- | --- | --- |
| FAM151B | 1.01 | 0.76 | 0.75 |
| USP40 | 1 | 0.62 | 0.62 |
| B3GNT6 | 0.96 | 0.95 | 0.99 |
| LGI3 | 0.73 | 0.48 | 0.66 |
| GTPBP3 | 1.01 | 0.74 | 0.73 |
| FAM110A | 1.1 | 0.8 | 0.73 |
| GIMAP1 | 0.98 | 0.84 | 0.86 |
| SNAI1 | 1.07 | 0.96 | 0.9 |
| ARFIP1 | 0.84 | 0.52 | 0.62 |
| CYLC1 | 0.76 | 0.62 | 0.82 |
| RXRB | 0.85 | 0.8 | 0.94 |
| APH1A | 0.7 | 0.62 | 0.88 |
| AGO1 | 0.88 | 0.63 | 0.72 |
| CREBRF | 0.74 | 0.46 | 0.62 |
| MRPS25 | 0.74 | 0.81 | 1.09 |
| CIMIP6 | 1.08 | 1.12 | 1.04 |
| FRG1 | 0.79 | 0.73 | 0.92 |
| TEX26 | 0.88 | 0.64 | 0.73 |
| UNKL | 0.88 | 0.9 | 1.02 |
| KRT34 | 1.07 | 0.98 | 0.92 |
| RRH | 0.69 | 0.82 | 1.18 |
| AQP1 | 0.98 | 0.57 | 0.58 |
| SP110 | 1.5 | 0.66 | 0.44 |
| PEMT | 0.99 | 0.81 | 0.82 |
| TUSC1 | 1.08 | 1.04 | 0.96 |
| CCAR1 | 1.04 | 0.8 | 0.77 |
| NMS | 0.9 | 0.54 | 0.6 |
| VSX2 | 1.03 | 0.8 | 0.78 |
| GASK1B | 0.81 | 0.63 | 0.78 |
| CTSV | 1.18 | 0.9 | 0.76 |
| LARGE2 | 1.03 | 1.06 | 1.03 |
| HSPH1 | 0.75 | 0.76 | 1.02 |
| ODC1 | 1.02 | 1.14 | 1.12 |
| GTF3C6 | 1.01 | 0.85 | 0.84 |
| PRPH | 1.01 | 1.17 | 1.16 |
| PPCDC | 1.18 | 0.67 | 0.57 |
| MRPL52 | 0.97 | 0.64 | 0.66 |
| SLC38A12 | 1.07 | 0.88 | 0.82 |
| ISG20L2 | 1 | 0.86 | 0.86 |
| UCK1 | 0.88 | 0.64 | 0.73 |
| NRXN3 | 1.1 | 0.77 | 0.7 |
| FFAR1 | 1.38 | 1.01 | 0.73 |
| FHIP2B | 1.29 | 0.9 | 0.7 |
| A4GALT | 1.1 | 0.92 | 0.84 |
| KRTAP9-3 | 1.31 | 0.68 | 0.52 |
| ZIC2 | 1.07 | 1.03 | 0.96 |
